In article doi:10.1101/2022.07.07.499147:

Target: HA-tagged ribosomal protein RpS5b (Drosophila) (UniProt Q9VFE4)
Test: co-IP

Substance: RpL26 (from UniProt Q9VVU2)
- binding: binds

No constants are given. Whether binding was seen depends on the method and setting. In cells and extracts the contact can be indirect. A result given as binding can be weak or reduced; the word gives no strength.
